Among the data in publication doi:10.1101/2025.09.22.677762 are binding values, retold here.

The assay has as its target T1, T13F2.2 (C. elegans (endogenous in N2 worms)) (UniProt Q94045).
T1 sequence: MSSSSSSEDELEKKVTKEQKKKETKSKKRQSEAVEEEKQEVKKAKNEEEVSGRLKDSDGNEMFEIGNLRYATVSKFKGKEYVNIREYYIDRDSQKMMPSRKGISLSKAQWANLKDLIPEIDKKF
Kind of assay: co-IP.

These are yes or no findings as the source states them, for the method shown. In cells and extracts the contact can be indirect.

In the case of “histone H2B (C. elegans (endogenous in N2 worms))”, the binding result was “no binding”.
